The target in this experiment is Streptag-FLAG-tagged SEC23B(S186D) (human) (UniProt Q15437). Kind of experiment: co-IP; affinity purification of Streptag-tagged bait on Streptactin beads from transfected HEK293T extracts (50 mM Tris pH 7.4, 150 mM NaCl, 2 mM EDTA, 10% glycerol, 0.5% NP-40; 2 h at 4 C), immunoblotting; in some panels MLN4924 for 4 h, EBSS starvation or co-expressed ULK1. For orientation: In western blotting, separated proteins are transferred to a membrane and probed.

No constants are given. Whether binding was seen depends on the method and setting. Binding seen in cells or lysates may run through a third protein. Binding can be weak; no strength is given. Tags and fused reporters may be left off the sequences shown.

As for GFP-SAR1 (T39N), the binding result is recorded as “no binding”.

Regarding GFP-SAR1 (H79G), the binding result is reported as “binds”.

These data come from publication PMC6351106.
